Patent publication US10351601B2 (Mainline Biosciences, priority 2016, dated 2019)

test: general procedure: Fmoc solid-phase peptide synthesis; 2-chlorotrityl chloride resin; DCC/HOBt; conditions: whole synthesis, analytical HPLC, scale of the general procedure 3.6 grams of Rink AM resin, acetate salt

In order of rising “final HPLC purity” value:
1. Cyclo[Mpa-Tyr-Lys(iPr)-(D-Arg)-2Nal-Gly-Cys]-Lys(iPr)-Gly-NH(Et)  95.71%
2. Cyclo[Mpa-Tyr-Lys(iPr)-(D-Arg)-2Nal-Gly-Cys]-Lys(iPr)-Gly-(D-Phe)-Gly-NH(Et)  96.54%

test: general procedure: Fmoc solid-phase peptide synthesis; Rink AM resin; DCC/HOBt; conditions: whole synthesis, analytical HPLC, scale of the general procedure 3.6 grams of Rink AM resin, acetate

In order of falling “final HPLC purity” value:
1. Benzoyl-cyclo[hCys-Tyr-Lys(iPr)-(D-Arg)-2Nal-Gly-Cys]-Lys(iPr)-Gly-NH(Et)  97.59%
2. Bz-CY[Lys(iPr)][dR][2Nal]GC[Lys(iPr)]G-NH2 (disulfide 1-7)  97.04%
3. Phenylacetyl-cyclo[hCys-Tyr-Lys(iPr)-(D-Arg)-2Nal-Gly-Cys]-Lys(iPr)-Gly-NH2  95.67%
4. Bz-CY[Lys(iPr)][dR][2Nal]G[hCys][Lys(iPr)]G-NH2 (disulfide 1-7)  95.64%
5. Cyclo[Mpa-Tyr-Lys(iPr)-(D-Arg)-2Nal-Gly-Cys]-Lys(iPr)-Lys(lauroyl)-NH(Et)  95.42%
6. Cyclo[Mpa-Tyr-Lys(iPr)-(D-Arg)-2Nal-Gly-Cys]-Lys(iPr)-Lys(palmitoyl)-NH(Et)  95.31%
7. PEPTIDE1{[ac].C.Y.[Lys(iPr)].[dR].[2Nal].G.C.[Lys(iPr)].G.[am]}|CHEM1{[mXyl]}$PEPTIDE1,CHEM1,2:R3-1:R1|PEPTIDE1,CHEM1,8:R3-1:R2$$$V2.0  95.23%
8. Ac-cyclo[hCys-Tyr-Lys(iPr)-(D-Arg)-2Nal-Gly-Cys]-Lys(iPr)-Gly-NH(Et)  95.03%

same assay, conditions: whole synthesis, analytical HPLC, scale of the general procedure 3.6 grams of Rink AM resin, acetate salt

In order of falling “final HPLC purity” value:
1. [Mpa]Y[Lys(iPr)][dR][2Nal]GCRG[dF]G-NH2 (disulfide 1-7)  98.78%
2. [Mpa]Y[Lys(iPr)][dR][2Nal]GC[dR]G[dF]G-NH2 (disulfide 1-7)  97.02%
3. [Mpa]YR[dR][2Nal]GCRG[dF]G-NH2 (disulfide 1-7)  96.64%
4. [Mpa]Y[Lys(iPr)][dR][2Nal]GC[Lys(iPr)]G[2Nal]G-NH2 (disulfide 1-7)  96.44%
5. Cyclo[Mpa-Tyr-Lys(iPr)-(D-Arg)-2Nal-Gly-Cys]-Lys(iPr)-Lys(lauroyl)-NH(Et)  96.42%
6. Ac-[hCys]Y[Lys(iPr)][dR][2Nal]GC[Lys(iPr)]G-NH2 (disulfide 1-7)  96.13%
7. [Mpa]RYR[2Nal]GCRG[dF]G-NH2 (disulfide 1-7)  96.05%
8. Bz-[hCys]Y[Lys(iPr)][dR][2Nal]GC[Lys(iPr)]G-NH2 (disulfide 1-7)  95.98%

For part of these data: Strings that start with PEPTIDE1 are HELM notation: dots part the residues, brackets hold end groups and non-standard residues. Bridge positions count the residues as written; N and C are the ends. Square brackets hold non-standard residues; d marks the D form. * marks the point of attachment. 2Nal = N[C@@H](Cc1ccc2ccccc2c1)C(=O)O; Lys(iPr) = CC(C)NCCCC[C@H](N)C(=O)O; hCys = N[C@@H](CCS)C(=O)O; Bz = O=C(c1ccccc1)*; Mpa = O=C(O)CCS
